Laboratory results: PubChem BioAssay AID743454 (Peter MacCallum Cancer Centre, 2014)
Test: 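Search for knock-downs that restore vorinostat killing in resistant colon cancer cells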 (primary screen). System: human HCT116-VR colon cancer cells, selected for vorinostat resistance. Reagents: siRNA pool against human genes, 40 nM siRNA pool. Duration: vorinostat for 24 h, read-out about 72 h after transfection. Treatment: vorinostat at 2.5 µM final. Detection: 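Two measures, CellTiter-Fluor viability and luminescent caspase 3/7 activity, each as fold change against same-plate mock wells, mean of duplicates, then screen-wide robust z-score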. Scale: viability robust z-score: higher = more viable cells than screen typical; caspase robust z-score: higher = more caspase 3/7 activity than screen typical. Rule for the call: 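a knock-down is a hit when classed RV1 or RV2 for lowered viability, or CA1 or CA2 for caspase activation; those lethal without drug were dropped; hits were retested singly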.
Shown is an unselected part of about 18,000 deposited reagents. Of all reagents, 450 (2.5%) were called active. 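Single biological run; no consistent viability z cut-off exists, so the class columns, not z-scores, define the calls.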 Reagent sequences are not shown.

| gene knocked down | viability hit class | caspase hit class | viability robust z-score | caspase robust z-score | Call |
| --- | --- | --- | --- | --- | --- |
| MUC16 (mucin 16, cell surface associated) | no change | no change | -1.36 | -0.74 | inactive |
| PAX3 (paired box 3) | no change | no change | 0.74 | -0.37 | inactive |
| KRTAP5-5 (keratin associated protein 5-5) | no change | no change | 0.22 | 0.19 | inactive |
| RSPH4A (radial spoke head component 4A) | no change | no change | -0.24 | 0.76 | inactive |
| MCU (mitochondrial calcium uniporter) | no change | no change | -0.2 | -1.07 | inactive |
| RRP1B (ribosomal RNA processing 1B) | no change | no change | 0.34 | -0.26 | inactive |
| PRAMEF7 (PRAME family member 7) | no change | no change | -1.5 | 3.06 | inactive |
| CYB561D2 (cytochrome b561 family member D2) | no change | no change | -1.39 | -1.46 | inactive |
| UGT1A9 (UDP glucuronosyltransferase family 1 member A9) | no change | no change | -0.9 | -0.92 | inactive |
| MCHR2 (melanin concentrating hormone receptor 2) | no change | no change | -0.9 | 0.5 | inactive |
| IGFBP4 (insulin like growth factor binding protein 4) | no change | no change | 0.82 | 1.29 | inactive |
| EPHA4 (EPH receptor A4) | no change | no change | -1.3 | -0.36 | inactive |
| TEFM (transcription elongation factor, mitochondrial) | no change | no change | -0.3 | -0.67 | inactive |
| AK8 (adenylate kinase 8) | no change | no change | 0.42 | 2.54 | inactive |
| FBXL2 (F-box and leucine rich repeat protein 2) | no change | no change | -1.71 | 2.5 | inactive |
| ABCA10 (ATP binding cassette subfamily A member 10) | no change | no change | 0.06 | -0.46 | inactive |
| SCGB1D2 (secretoglobin family 1D member 2) | no change | no change | 1.2 | -0.38 | inactive |
| TACSTD2 (tumor associated calcium signal transducer 2) | no change | no change | -0.46 | 1.39 | inactive |
| R3HCC1L (R3H domain and coiled-coil containing 1 like) | no change | no change | 0.56 | -0.59 | inactive |

Entries above whose gene name starts with T or t (2):
| gene knocked down | viability hit class | caspase hit class | viability robust z-score | caspase robust z-score | Call |
| --- | --- | --- | --- | --- | --- |
| TEFM (transcription elongation factor, mitochondrial) | no change | no change | -0.3 | -0.67 | inactive |
| TACSTD2 (tumor associated calcium signal transducer 2) | no change | no change | -0.46 | 1.39 | inactive |

Additional records follow:
| gene knocked down | viability hit class | caspase hit class | viability robust z-score | caspase robust z-score | Call |
| --- | --- | --- | --- | --- | --- |
| IL37 (interleukin 37) | no change | no change | -0.22 | 2.22 | inactive |
| GTF2IRD1 (GTF2I repeat domain containing 1) | no change | no change | -0.76 | -1.02 | inactive |
| OSBPL9 (oxysterol binding protein like 9) | no change | no change | 0.29 | -0.23 | inactive |
| CDC42SE1 (CDC42 small effector 1) | no change | no change | -0.82 | 0.39 | inactive |
| SMARCA2 | no change | no change | 0.45 | 4.22 | inactive |
| ENPP7 (ectonucleotide pyrophosphatase/phosphodiesterase 7) | no change | no change | 0.77 | -0.92 | inactive |
| S100G (S100 calcium binding protein G) | no change | no change | 0.72 | 0.38 | inactive |
| LGI3 (leucine rich repeat LGI family member 3) | no change | no change | 0.25 | 0 | inactive |
| DCK (deoxycytidine kinase) | no change | no change | -3.12 | 0.5 | inactive |
| LRRC47 (leucine rich repeat containing 47) | no change | no change | -0.16 | 3.93 | inactive |
| SCARA5 (scavenger receptor class A member 5) | no change | no change | 0.92 | 1.69 | inactive |
| CEP97 (centrosomal protein 97) | no change | no change | -0.93 | 0.86 | inactive |
| FGGY (FGGY carbohydrate kinase domain containing) | no change | no change | -0.34 | -1.01 | inactive |
| MYG1 (MYG1 exonuclease) | no change | no change | -4.28 | 3.27 | inactive |
| ANKFY1 (ankyrin repeat and FYVE domain containing 1) | no change | no change | -1.41 | 1.7 | inactive |
| TSEN15 (tRNA splicing endonuclease subunit 15) | no change | no change | 1.03 | -0.38 | inactive |
| PCDH19 (protocadherin 19) | no change | no change | 0.33 | -0.66 | inactive |
| EML5 (EMAP like 5) | no change | no change | 0.33 | -0.27 | inactive |
| GRAP (GRB2 related adaptor protein) | no change | no change | 1.17 | 1.08 | inactive |
| INSL6 (insulin like 6) | no change | no change | 0.68 | 0.23 | inactive |
| SLC7A4 | no change | no change | -0.68 | 1.84 | inactive |
| DDX56 (DEAD-box helicase 56) | no change | no change | -2.49 | 1.55 | inactive |
| SERPINB7 (serpin family B member 7) | no change | no change | 1.17 | -1.04 | inactive |
| SQOR (sulfide quinone oxidoreductase) | no change | no change | 0.9 | -0.26 | inactive |
| SPRYD4 (SPRY domain containing 4) | no change | no change | 1.47 | -0.62 | inactive |
| YEATS4 (YEATS domain containing 4) | no change | no change | -0.13 | -0.22 | inactive |
| SHC2 (SHC adaptor protein 2) | no change | no change | -0.61 | 3.29 | inactive |
| DPP4 (dipeptidyl peptidase 4) | no change | no change | -0.9 | -0.98 | inactive |
| ANK1 (ankyrin 1) | no change | no change | 0.52 | 2.48 | inactive |
| PSD4 (pleckstrin and Sec7 domain containing 4) | no change | no change | -0.54 | -1.38 | inactive |
| SLC7A7 | no change | no change | 0 | -0.25 | inactive |
| RPL23 (ribosomal protein L23) | no change | no change | -5.96 | -1.02 | inactive |
| WNT10A (Wnt family member 10A) | no change | no change | -0.31 | -0.08 | inactive |
| LRRC4C (leucine rich repeat containing 4C) | no change | no change | -0.88 | -0.53 | inactive |
| DCPH1 (damage control phosphatase 1) | no change | no change | 0 | 1.54 | inactive |
| EPHA1 (EPH receptor A1) | no change | no change | -1.9 | 3.15 | inactive |
| MAPK12 (mitogen-activated protein kinase 12) | no change | no change | 0.92 | 0.57 | inactive |
| TMEM175 (transmembrane protein 175) | no change | no change | -1.01 | 0.06 | inactive |
